Test results: article PMC5325215
These are yes or no findings as the source states them, for the method shown. In cells and extracts the contact can be indirect. Binding can be weak; no strength is given. Where a sequence is shown, tags or fusion partners need not be part of it.

Legend:
[1] = target: T1, 3 x FLAG tagged full-length FILIP (rat L-FILIP) (rat) (UniProt Q8K4T4); assay: co-IP; COS-7 cells transfected with FLAG-tagged FILIP or deletion mutants; immunoprecipitation with anti-FLAG M2 on Protein G Dynabeads, 4°C, 3 hours; blots with anti-Hsc70 or anti-NMHCIIb; in Fig 4E also with expression of Hsc70 or Hsc70 K71M
T1 sequence: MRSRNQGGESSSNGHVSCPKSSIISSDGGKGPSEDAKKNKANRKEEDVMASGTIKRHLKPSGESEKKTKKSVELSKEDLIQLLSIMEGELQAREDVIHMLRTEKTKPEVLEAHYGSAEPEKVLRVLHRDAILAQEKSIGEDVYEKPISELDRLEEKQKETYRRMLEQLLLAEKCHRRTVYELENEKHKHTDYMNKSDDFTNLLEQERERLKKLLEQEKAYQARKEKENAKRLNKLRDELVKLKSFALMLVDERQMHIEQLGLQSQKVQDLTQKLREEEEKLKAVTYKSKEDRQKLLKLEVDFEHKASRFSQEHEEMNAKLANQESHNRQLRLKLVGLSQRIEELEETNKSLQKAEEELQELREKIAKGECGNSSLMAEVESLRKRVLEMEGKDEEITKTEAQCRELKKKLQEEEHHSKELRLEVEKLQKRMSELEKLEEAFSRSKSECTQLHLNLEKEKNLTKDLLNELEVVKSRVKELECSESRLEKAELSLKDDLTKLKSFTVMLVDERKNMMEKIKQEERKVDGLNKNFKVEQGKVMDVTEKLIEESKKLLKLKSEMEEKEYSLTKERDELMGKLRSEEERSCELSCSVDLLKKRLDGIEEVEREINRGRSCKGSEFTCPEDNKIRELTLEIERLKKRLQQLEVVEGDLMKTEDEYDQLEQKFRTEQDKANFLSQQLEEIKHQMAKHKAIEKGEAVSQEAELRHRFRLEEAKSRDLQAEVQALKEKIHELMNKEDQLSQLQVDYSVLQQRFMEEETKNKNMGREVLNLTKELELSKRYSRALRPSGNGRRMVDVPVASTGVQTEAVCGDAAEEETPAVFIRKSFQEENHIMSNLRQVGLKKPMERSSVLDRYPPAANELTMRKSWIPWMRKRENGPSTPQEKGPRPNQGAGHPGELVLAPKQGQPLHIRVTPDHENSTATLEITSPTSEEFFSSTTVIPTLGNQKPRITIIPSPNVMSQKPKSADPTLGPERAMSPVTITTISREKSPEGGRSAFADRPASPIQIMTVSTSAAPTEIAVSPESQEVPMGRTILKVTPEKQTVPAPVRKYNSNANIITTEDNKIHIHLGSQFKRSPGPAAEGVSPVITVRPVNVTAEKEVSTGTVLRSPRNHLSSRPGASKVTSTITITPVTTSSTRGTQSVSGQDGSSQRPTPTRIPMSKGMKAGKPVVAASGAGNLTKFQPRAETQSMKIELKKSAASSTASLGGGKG

[2] = target: T2, FILIP d934-1111 (3 x FLAG tagged) (rat) (UniProt Q8K4T4); assay: as above
T2 sequence: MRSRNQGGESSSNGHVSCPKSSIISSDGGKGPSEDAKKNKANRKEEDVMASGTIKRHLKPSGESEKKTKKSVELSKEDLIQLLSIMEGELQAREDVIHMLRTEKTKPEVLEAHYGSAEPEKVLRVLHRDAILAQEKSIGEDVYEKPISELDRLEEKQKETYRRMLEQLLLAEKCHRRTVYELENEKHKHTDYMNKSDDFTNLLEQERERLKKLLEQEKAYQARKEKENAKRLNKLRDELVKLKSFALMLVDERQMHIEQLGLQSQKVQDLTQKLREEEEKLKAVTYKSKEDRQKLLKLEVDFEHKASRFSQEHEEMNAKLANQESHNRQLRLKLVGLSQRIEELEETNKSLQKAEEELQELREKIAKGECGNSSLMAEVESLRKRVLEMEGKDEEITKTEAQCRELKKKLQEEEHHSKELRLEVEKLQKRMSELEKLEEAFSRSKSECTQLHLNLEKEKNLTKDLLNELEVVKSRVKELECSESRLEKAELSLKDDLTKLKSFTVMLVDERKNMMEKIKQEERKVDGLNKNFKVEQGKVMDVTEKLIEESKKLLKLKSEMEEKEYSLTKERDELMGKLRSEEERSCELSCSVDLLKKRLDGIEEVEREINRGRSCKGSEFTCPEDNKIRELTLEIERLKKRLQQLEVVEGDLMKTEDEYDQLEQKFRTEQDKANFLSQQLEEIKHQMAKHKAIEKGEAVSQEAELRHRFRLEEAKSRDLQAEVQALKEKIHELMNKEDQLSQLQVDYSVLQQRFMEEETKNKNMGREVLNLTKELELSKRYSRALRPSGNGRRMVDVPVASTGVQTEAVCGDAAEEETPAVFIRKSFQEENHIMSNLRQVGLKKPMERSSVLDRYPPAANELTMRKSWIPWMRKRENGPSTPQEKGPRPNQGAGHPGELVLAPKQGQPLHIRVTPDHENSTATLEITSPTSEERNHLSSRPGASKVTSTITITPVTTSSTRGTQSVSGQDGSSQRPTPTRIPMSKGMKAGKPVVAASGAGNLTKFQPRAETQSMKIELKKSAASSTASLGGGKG

Substance: non-muscle myosin IIb (endogenous, COS-7 cells)
- binding [1]: binds
- binding [2]: binds
